Test results taken from PubChem BioAssay (NCI).
The hits were mostly taken out for another list; the other results follow. Calls of active or inactive are those of the source. No stated cut-off is given here; in the data, active means growth inhibition above about 70%; inactive means the rest.

Tests used:
[1] = NCI Yeast Anticancer Drug Screen. Data for the rad52 strain (AID 147);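 further: 0% = growth of vehicle-treated control cultures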; conditions: S. cerevisiae rad52 mutant growth inhibition, stronger effect = higher value
In short: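 Screen used a yeast mutant impaired in DNA repair. After compound exposure, growth was measured. Values reflect inhibition compared with vehicle-treated cells.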

[2] = NCI Yeast Anticancer Drug Screen. Data for the wt1 strain (AID 149);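 further: 0% = growth of vehicle-treated wt1 cultures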; conditions: S. cerevisiae wt1 strain (SPY 50644) growth inhibition, stronger effect = higher value
In short: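 The wt1 strain was treated with compounds, and growth was compared with vehicle-treated cultures to give inhibition.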

[3] = NCI Yeast Anticancer Drug Screen. Data for the mgt1 strain (AID 153); conditions: S. cerevisiae mgt1 mutant growth inhibition, stronger effect = higher value
In short: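 Genetically defined yeast (mgt1) treated with compound; inhibition of growth expressed against vehicle-treated controls.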

[4] = NCI Yeast Anticancer Drug Screen. Data for the rad14 strain (AID 159);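 further: 0% = growth of vehicle-treated control cultures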; conditions: S. cerevisiae rad14 strain growth inhibition, stronger effect = higher value
In short: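 Readout: yeast growth inhibition, referenced to vehicle-only cultures. Strain bears a defined alteration in DNA damage repair.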

[5] = NCI Yeast Anticancer Drug Screen. Data for the CLN2oe strain (AID 163);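 further: 0% = growth of vehicle-only control cultures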; conditions: S. cerevisiae CLN2oe strain, stronger effect = higher value
In short: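 Values reflect how much compound exposure reduced yeast growth, referenced to vehicle-exposed cells. Assay organism is a strain with a defined genetic change affecting cell-cycle control.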

[6] = NCI Yeast Anticancer Drug Screen. Data for the wt2 strain (AID 169);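 further: 0% = growth of vehicle-treated yeast cultures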; conditions: S. cerevisiae wt2 strain growth inhibition, stronger effect = higher value
In short: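 Values express reduction in yeast growth under compound treatment, referenced to vehicle-treated cells.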

[7] = NCI Yeast Anticancer Drug Screen. Data for the mlh1 strain (AID 171);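 further: 0% = growth of vehicle-treated control cultures of the same strain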; conditions: S. cerevisiae mlh1 strain growth inhibition, stronger effect = higher value
In short: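 Steps: expose the defined-mutant yeast strain to compound; expose a parallel culture to vehicle; measure growth; express compound effect as inhibition relative to the vehicle culture.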

[8] = NCI Yeast Anticancer Drug Screen. Data for the sgs1 strain (AID 173);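 further: 0% = growth of vehicle-only control cultures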; conditions: S. cerevisiae sgs1 mutant, stronger effect = higher value
In short: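 Treat defined-mutant yeast with compound; measure growth; calculate inhibition relative to vehicle-treated cells.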

[9] = NCI Yeast Anticancer Drug Screen. Data for the rad18 strain (AID 177); conditions: S. cerevisiae rad18 mutant growth inhibition, stronger effect = higher value
In short: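 A genetically defined yeast mutant impaired in DNA damage repair was treated with test compounds, then its growth was measured against cultures receiving vehicle alone.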

[10] = NCI Yeast Anticancer Drug Screen. Data for the rad50EPP+ strain (AID 151);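 further: 0% = growth of vehicle-treated control cultures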; conditions: S. cerevisiae rad50 mutant strain, stronger effect = higher value
In short: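 Exposing the rad50EPP+ strain to each compound, growth was compared with vehicle-only cultures to give inhibition.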

Measured: growth inhibition

Cc1cc(C(c2ccccc2)(c2ccccc2)c2ccccc2)ccc1N
inactive: [1]; at 1.2 µM 1% | [1]; at 3.7 µM 3% | [1]; at 11.0 µM 6% | [1]; at 33.0 µM 15% | [1]; at 100.0 µM 19% | [2]; at 1.2 µM -1% | [2]; at 3.7 µM 1% | [2]; at 11.0 µM 2% | [2]; at 33.0 µM 0% | [2]; at 100.0 µM 2% | [3]; at 1.2 µM -1% | [3]; at 3.7 µM 0% | [3]; at 11.0 µM -2% | [3]; at 33.0 µM -2% | [3]; at 100.0 µM -18% | [4]; at 1.2 µM -1% | [4]; at 3.7 µM -3% | [4]; at 11.0 µM -1% | [4]; at 33.0 µM 4% | [4]; at 100.0 µM 3% | [5]; at 1.2 µM -2% | [5]; at 3.7 µM 1% | [5]; at 11.0 µM -2% | [5]; at 33.0 µM -6% | [5]; at 100.0 µM -4% | [6]; at 1.2 µM 1% | [6]; at 3.7 µM 0% | [6]; at 11.0 µM -7% | [6]; at 33.0 µM -2% | [6]; at 100.0 µM -3% | [7]; at 1.2 µM 2% | [7]; at 3.7 µM 2% | [7]; at 11.0 µM 2% | [7]; at 33.0 µM 4% | [7]; at 100.0 µM 8% | [8]; at 1.2 µM 0% | [8]; at 3.7 µM 0% | [8]; at 11.0 µM 1% | [8]; at 33.0 µM 3% | [8]; at 100.0 µM 7% | [9]; at 1.2 µM 2% | [9]; at 3.7 µM 1% | [9]; at 11.0 µM 0% | [9]; at 33.0 µM 6% | [9]; at 100.0 µM 18%

CC(C)(C(=O)O)n1c(-c2ccccc2)c(-c2ccccc2)oc1=O
inactive: [1]; at 1.2 µM -2% | [1]; at 3.7 µM -2% | [1]; at 11.0 µM 0% | [1]; at 33.0 µM -3% | [1]; at 100.0 µM 0% | [2]; at 1.2 µM 0% | [2]; at 3.7 µM 5% | [2]; at 11.0 µM 1% | [2]; at 33.0 µM 1% | [2]; at 100.0 µM 5% | [10]; at 1.2 µM 2% | [10]; at 3.7 µM 4% | [10]; at 11.0 µM 4% | [10]; at 33.0 µM 1% | [10]; at 100.0 µM 2% | [3]; at 1.2 µM -4% | [3]; at 3.7 µM -3% | [3]; at 11.0 µM -2% | [3]; at 33.0 µM -2% | [3]; at 100.0 µM 0% | [4]; at 1.2 µM -3% | [4]; at 3.7 µM -1% | [4]; at 11.0 µM 1% | [4]; at 33.0 µM 1% | [4]; at 100.0 µM 4% | [5]; at 1.2 µM -6% | [5]; at 3.7 µM -10% | [5]; at 11.0 µM -8% | [5]; at 33.0 µM 0% | [5]; at 100.0 µM 4% | [6]; at 1.2 µM -1% | [6]; at 3.7 µM -1% | [6]; at 11.0 µM -2% | [6]; at 33.0 µM 0% | [6]; at 100.0 µM 2% | [7]; at 1.2 µM -1% | [7]; at 3.7 µM 1% | [7]; at 11.0 µM 0% | [7]; at 33.0 µM 2% | [7]; at 100.0 µM 3% | [8]; at 1.2 µM 0% | [8]; at 3.7 µM -1% | [8]; at 11.0 µM 0% | [8]; at 33.0 µM 1% | [8]; at 100.0 µM 4% | [9]; at 1.2 µM 2% | [9]; at 3.7 µM 2% | [9]; at 11.0 µM 5% | [9]; at 33.0 µM 15% | [9]; at 100.0 µM 30%

C=C(NC(=O)C(NC(=O)C(CCCCN)NC(=O)C1CSC(C)C2NC(=O)C(CC(C)C)NC(=O)C(NC(=O)C(CCC(N)=O)NC(=O)C(CC(C)C)NC(=O)C(Cc3ccccc3)NC(=O)C3CSC(C)C(NC(=O)C(NC(=O)C4CSC(C)C(NC(=O)C5CSCC(NC(=O)C(CCCCN)NC(=O)C(N)Cc6c[nH]c7ccccc67)C(=O)NC(CCC(=O)O)C(=O)NC(=C)C(=O)NC(CC(C)C)C(=O)N5)C(=O)N5CCCC5C(=O)NCC(=O)N4)C(C)C)C(=O)NCC(=O)NC(C)C(=O)NC(CC(C)C)C(=O)NC(CCC(N)=O)C(=O)N/C(=C/C)C(=O)N3)C(C)SCC(NC2=O)C(=O)NC(CC(N)=O)C(=O)N1)C(C)CC)C(=O)NC(CCCCN)C(=O)O (stereo not given)
inactive: [1]; at 1.2 µM -1% | [1]; at 3.7 µM -2% | [1]; at 11.0 µM -4% | [1]; at 33.0 µM -5% | [1]; at 100.0 µM -6% | [2]; at 1.2 µM -3% | [2]; at 3.7 µM -1% | [2]; at 11.0 µM 1% | [2]; at 33.0 µM -44% | [2]; at 100.0 µM 0% | [10]; at 1.2 µM 1% | [10]; at 3.7 µM 4% | [10]; at 11.0 µM 3% | [10]; at 33.0 µM -7% | [10]; at 100.0 µM -1% | [3]; at 1.2 µM -1% | [3]; at 3.7 µM -8% | [3]; at 11.0 µM -3% | [3]; at 33.0 µM -6% | [3]; at 100.0 µM -10% | [4]; at 1.2 µM 1% | [4]; at 3.7 µM 3% | [4]; at 11.0 µM 4% | [4]; at 33.0 µM 1% | [4]; at 100.0 µM 4% | [5]; at 1.2 µM 1% | [5]; at 3.7 µM 1% | [5]; at 11.0 µM 0% | [5]; at 33.0 µM 9% | [5]; at 100.0 µM 6% | [6]; at 1.2 µM -1% | [6]; at 3.7 µM -3% | [6]; at 11.0 µM -5% | [6]; at 33.0 µM -5% | [6]; at 100.0 µM -9% | [7]; at 1.2 µM -2% | [7]; at 3.7 µM -3% | [7]; at 11.0 µM -4% | [7]; at 33.0 µM -5% | [7]; at 100.0 µM -12% | [8]; at 1.2 µM -1% | [8]; at 3.7 µM -1% | [8]; at 11.0 µM 0% | [8]; at 33.0 µM -2% | [8]; at 100.0 µM -11% | [9]; at 1.2 µM -2% | [9]; at 3.7 µM -2% | [9]; at 11.0 µM -1% | [9]; at 33.0 µM -2% | [9]; at 100.0 µM -6%

CCCCN1C(=O)C(=O)C(C(=O)OCC)C1C(=O)OCC (stereo not given)
inactive: [1]; at 1.2 µM -3% | [1]; at 3.7 µM -1% | [1]; at 11.0 µM 3% | [1]; at 33.0 µM 0% | [1]; at 100.0 µM 5% | [2]; at 1.2 µM -1% | [2]; at 3.7 µM -3% | [2]; at 11.0 µM 0% | [2]; at 33.0 µM 0% | [2]; at 100.0 µM 5% | [10]; at 1.2 µM -5% | [10]; at 3.7 µM -4% | [10]; at 11.0 µM 4% | [10]; at 33.0 µM -4% | [10]; at 100.0 µM -1% | [3]; at 1.2 µM -2% | [3]; at 3.7 µM 0% | [3]; at 11.0 µM 2% | [3]; at 33.0 µM 5% | [3]; at 100.0 µM 8% | [4]; at 1.2 µM -2% | [4]; at 3.7 µM 3% | [4]; at 11.0 µM 9% | [4]; at 33.0 µM 9% | [4]; at 100.0 µM 20% | [5]; at 1.2 µM 2% | [5]; at 3.7 µM 4% | [5]; at 11.0 µM 8% | [5]; at 33.0 µM 15% | [5]; at 100.0 µM 22% | [6]; at 1.2 µM -5% | [6]; at 3.7 µM -7% | [6]; at 11.0 µM 3% | [6]; at 33.0 µM 2% | [6]; at 100.0 µM -3% | [7]; at 1.2 µM -3% | [7]; at 3.7 µM 0% | [7]; at 11.0 µM 3% | [7]; at 33.0 µM 5% | [7]; at 100.0 µM 11% | [8]; at 1.2 µM -19% | [8]; at 3.7 µM -17% | [8]; at 11.0 µM -18% | [8]; at 33.0 µM -6% | [8]; at 100.0 µM 14% | [9]; at 1.2 µM -7% | [9]; at 3.7 µM -1% | [9]; at 11.0 µM -2% | [9]; at 33.0 µM -1% | [9]; at 100.0 µM 11%
